Reference: patent US20060129225A1, “Device for the delivery of a cardioprotective agent to ischemic reperfused myocardium” (priority 2004, published 2006)
At least one compound was matched to its structure with a doubt left.

Key:
[1] = Liquid formulations with Vitamin E TPGS, ethanol and water (HPLC assay, visual observation); type: physicochemical; details: ethanol less than two percent, water
[2] = test system: monocyte chemotactic protein (MCP-1); assay: Cytokine levels in vascular tissue after delivery from a stent; type: in vivo; details: delivered from a stent
[3] = Liquid formulations of sirolimus with PEG 200, ethanol and water (liquid chromatography); type: physicochemical
[4] = test system: neointimal hyperplasia, porcine model; assay: Animal studies with rapamycin-coated stents, porcine; type: in vivo; details: porcine and rabbit models, nonerodible polymeric stent coating, 35-430 μg/15-18 mm coronary stent, maximal at about twenty-eight to thirty days
[5] = In vitro release kinetics from a layered rapamycin, Panzem and polymeric coating; type: physicochemical; details: Bx Velocity stent, inner layer 45% Panzem in EVA/BMA, outer layer 40% rapamycin in EVA/BMA, no topcoat

## CO[C@H]1C[C@@H]2CC[C@@H](C)[C@@](O)(O2)C(=O)C(=O)N2CCCC[C@H]2C(=O)O[C@H]([C@H](C)C[C@@H]2CC[C@@H](O)[C@H](OC)C2)CC(=O)[C@H](C)/C=C(\C)[C@@H](O)[C@@H](OC)C(=O)[C@H](C)C[C@H](C)/C=C/C=C/C=C/1C [rapamycin]
[1]
  sirolimus concentration in the final solution (HPLC assay): 15 mg/mL
[2]
  monocyte chemotactic protein (MCP-1) levels in the vascular wall: highly effective in reducing
[3]; 4 mg/ml PEG 200 formulation
  dilution with water before sirolimus starts to precipitate out of solution: five to ten
[3]; ethanol two percent, water twenty-five percent, PEG 200 seventy-five percent
  concentration of sirolimus achieved in liquid formulation: 4000 µg/mL
[4]
  peak reduction in neointimal hyperplasia: fifty to fifty-five
[5]
  in vitro elution compared with Panzem: elutes more slowly than Panzem®
